Taken from: PubChem BioAssay AID602196 (INSERM, 2012)

Assay: 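Modifiers of cisplatin sensitivity in A549 cells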
System: human A549 lung cancer cells
Reagents: siRNA pair against human genes
Time to read-out: 48 h transfection before cisplatin; time from cisplatin to read-out not stated
Conditions: cisplatin at a dose killing half of control-siRNA cells; exact dose and duration not given
Measurement: 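Cisplatin cell death as a shift from the 50% death seen with control siRNA; siRNAs toxic or growth-blocking alone scored 0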
Direction: two-siRNA summed score (-2 to +2): higher = both siRNAs protect from cisplatin killing; -2 means both sensitise; mean protection from cisplatin (shift in death) and protection from cisplatin (shift in death), siRNA C and protection from cisplatin (shift in death), siRNA D: higher = protection from cisplatin killing
Hit rule: 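siRNAs harmful alone (LDH or WST-1) get 0; others get +1 for less and -1 for more cisplatin killing; genes are active when the two siRNAs give the same sign, summing to ±2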
Calls: active = both siRNAs shift cisplatin killing the same way; inactive = no consistent shift, or siRNA harmful alone
Here is an unselected part of about 23,000 reagents. 455 of them (2%) count as active. 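Active includes both protection and sensitisation; some change values fall well beyond the stated -50 to +50 range.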 A number with no mark means an inactive call. Reagents against one gene are numbered here. Not stated in the record: the amount of reagent.

Target gene | reagent no. | two-siRNA summed score (-2 to +2) | mean protection from cisplatin (shift in death) (%) | protection from cisplatin (shift in death), siRNA C (%) | protection from cisplatin (shift in death), siRNA D (%)
SH3TC2-DT (SH3TC2 divergent transcript) | 1 | 0 | 13.7 | 18 | 9.4
LOC389892 | 1 | 1 | -3.5 | 13.3 | -20.3
HMX3 (H6 family homeobox 3) | 1 | 1 | 14.8 | 6.2 | 23.4
TRAPPC2L (trafficking protein particle complex subunit 2L) | 1 | 0 | -1.2 | -1.2 | -1.2
SLC35B4 | 1 | 0 | -1.2 | 1.6 | -3.9
RINT1 (RAD50 interactor 1) | 1 | 1 | 3.8 | 12.2 | -4.6
LRRTM1 (leucine rich repeat transmembrane neuronal 1) | 1 | 0 | 7.5 | 9.8 | 5.1
LOC441043 | 1 | 0 | 13.1 | 4.2 | 21.9
KLC3 (kinesin light chain 3) | 1 | 0 | -2.8 | -6.3 | 0.8
KLC3 (kinesin light chain 3) | 2 | 1 | -6.7 | 14 | -27.4
SOX4 (SRY-box transcription factor 4) | 1 | 0 | -4.9 | -3.9 | -5.9
NFE2L2 (NFE2 like bZIP transcription factor 2) | 1 | 0 | 8.9 | 14.5 | 3.3
LOC390338 | 1 | 0 | 10.6 | 4.7 | 16.5
FCER2 (Fc epsilon receptor II) | 1 | 0 | 1.9 | -0.8 | 4.7
TBX6 (T-box transcription factor 6) | 1 | 0 | 17.9 | 17 | 18.9
SRSF9 (serine and arginine rich splicing factor 9) | 1 | 0 | -7.4 | -6 | -8.9
SEMA4C (semaphorin 4C) | 1 | 0 | -0.2 | -1.5 | 1
MAGED2 (MAGE family member D2) | 1 | 0 | -0.9 | 12.5 | -14.4
LOC442043 | 1 | 1 | 18.5 | 16.5 | 20.6
NUDT12 (nudix hydrolase 12) | 1 | 0 | 2.4 | 6.8 | -2
KIR2DL4 | 1 | 0 | -1.2 | -4.5 | 2
EML5 (EMAP like 5) | 1 | 0 | -7 | -6.1 | -7.8
GJB3 (gap junction protein beta 3) | 1 | 0 | 9 | -0.2 | 18.1
CAMTA2 (calmodulin binding transcription activator 2) | 1 | 1 | 10.4 | 6.3 | 14.6
LOC389364 | 1 | -1 | -7.4 | -16.4 | 1.6
SUV39H2 (SUV39H2 histone lysine methyltransferase) | 1 | 0 | 11.8 | 6.6 | 17
TBCC (tubulin folding cofactor C) | 1 | 0 | 9.7 | 13.1 | 6.4
FAM193B (family with sequence similarity 193 member B) | 1 | 0 | -4.9 | -16 | 6.1
LOC388688 | 1 | 0 | 2.2 | 8.9 | -4.5
PDAP1P3 (PDAP1 pseudogene 3) | 1 | 0 | -3.7 | -9 | 1.7

Next part, starting with the last 5 of the part before.
Target gene | reagent no. | two-siRNA summed score (-2 to +2) | mean protection from cisplatin (shift in death) (%) | protection from cisplatin (shift in death), siRNA C (%) | protection from cisplatin (shift in death), siRNA D (%)
SUV39H2 (SUV39H2 histone lysine methyltransferase) | 1 | 0 | 11.8 | 6.6 | 17
TBCC (tubulin folding cofactor C) | 1 | 0 | 9.7 | 13.1 | 6.4
FAM193B (family with sequence similarity 193 member B) | 1 | 0 | -4.9 | -16 | 6.1
LOC388688 | 1 | 0 | 2.2 | 8.9 | -4.5
PDAP1P3 (PDAP1 pseudogene 3) | 1 | 0 | -3.7 | -9 | 1.7
GMIP (GEM interacting protein) | 1 | 0 | -2.5 | -5.5 | 0.5
SNF8 (SNF8 subunit of ESCRT-II) | 1 | 0 | -5.9 | -11.3 | -0.4
C11orf52 (chromosome 11 open reading frame 52) | 1 | 0 | 8.7 | 10.2 | 7.2
PPP2R2D (protein phosphatase 2 regulatory subunit Bdelta) | 1 | -1 | -13.1 | -4 | -22.1
CEP85L (centrosomal protein 85L) | 1 | 0 | 11.8 | 4.9 | 18.6
FLJ31132 | 1 | -1 | -8.7 | 0.7 | -18
ZNF609 (zinc finger protein 609) | 1 | 0 | -5.2 | -6 | -4.4
KCTD9 (potassium channel tetramerization domain containing 9) | 1 | 0 | 7.2 | 5.1 | 9.3
LOC441937 | 1 | 0 | 12.4 | 10.3 | 14.4
TMPRSS5 (transmembrane serine protease 5) | 1 | 0 | -0.6 | -3.3 | 2
ZNF496 (zinc finger protein 496) | 1 | 0 | 0.4 | -3 | 3.8
LGI3 (leucine rich repeat LGI family member 3) | 1 | 2 (active) | 16.3 | 19.8 | 12.7
RTF2 (replication termination factor 2) | 1 | 0 | 4.9 | 5.2 | 4.6
SLC18A2 | 1 | 1 | 4.2 | -13.2 | 21.5
POLR2C (RNA polymerase II subunit C) | 1 | 0 | -9.7 | -17 | -2.4
UBE2L3 (ubiquitin conjugating enzyme E2 L3) | 1 | -2 (active) | -20.2 | -23.8 | -16.7
DLX1 (distal-less homeobox 1) | 1 | 1 | 1.3 | -9.5 | 12.2
LOC152138 | 1 | 0 | 6.5 | 22 | -9
CD200R1L (CD200 receptor 1 like) | 1 | 0 | 2.7 | 6.3 | -0.8
LAMB1 (laminin subunit beta 1) | 1 | -1 | -2 | 20.5 | -24.5
RGS11 (regulator of G protein signaling 11) | 1 | 0 | 2 | -2.1 | 6.2
ADHFE1 (alcohol dehydrogenase iron containing 1) | 1 | 1 | 14.2 | 15.1 | 13.3
LOC440047 (retired record) | 1 | 1 | 4.5 | -7.6 | 16.6
KLK3 (kallikrein related peptidase 3) | 1 | -1 | -17.4 | -0.3 | -34.5
AGO1 (argonaute RISC component 1) | 1 | 0 | 23.8 | 49.4 | -1.8
BEGAIN (brain enriched guanylate kinase associated) | 1 | 0 | 12.7 | 16.8 | 8.6
HTR3D (5-hydroxytryptamine receptor 3D) | 1 | 0 | -0.3 | 0.7 | -1.2
